## Screening data

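Uptake of anthrax lethal toxin into cultured cells, read by FRET (460/530 nm ratio) and reported from the 460 nm channel; the cell line is not named here.
Each compound was tested as a concentration series from about 0.0005 to 40 µM.
The number is the fitted AC50 of the 460 nm signal alone; lower values mean a more potent effect. A falling signal goes with compounds filed as inhibitors or cytotoxic, a rising one with activators or fluorescent compounds (inferred from the filed classes).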

Values are in µM.
Common to all entries: measured here: 460 nm channel.
Part of the compounds only, not a random draw; the main read-out is not listed here.
Potencies fitted to partial, single-point or poorly fitting curves are rough.
The first word of each remark tells which way the curve ran; it can be opposite to the aim of the assay.

Compound,AC50 (µM),curve
CC(=O)OCCC(C)C,12.59,"rising, single point"
CC(=O)c1c(C)[nH]c(C(=O)OCCCCN2C(=O)c3ccccc3C2=O)c1C,15.85,"falling, single point"
N#CC(=C1SC=CS1)c1nc(-c2ccccc2)cs1,10,"falling, partial curve"
CC(C)[C@H](NC(=O)NCc1ccco1)C(=O)O,5.012,"rising, single point"
COc1ccc(-n2c(=O)[nH]cc(C(=O)Nc3ccc4c(c3)OCCO4)c2=O)cc1,6.31,"rising, single point"
CCC(C)NC(=O)CSc1nc2ccc(N3CCOCC3)cc2c(=O)n1CCc1ccccc1 (stereo not shown),5.012,"rising, single point"
COc1ccc(Br)cc1C(=O)Nc1cccc(NC(=O)c2ccco2)c1,2.512,"falling, full curve"
CCOc1cccc(NC(=O)C2CC(=O)N(C)C(=Nc3cccc(F)c3)S2)c1 (stereo not shown),12.59,"falling, partial curve"
CN(C)C(=O)N1CCC(C(=O)NCc2ccc(F)cc2Cl)CC1,0.05012,"falling, full curve, poor fit"
CN1CC[C@@H]2CN3CCc4cccc(c43)[C@H]2C1,0.3981,"falling, full curve, poor fit"
C[C@@H](C(=O)NCc1ccccc1)[C@H]1C[C@]1(C)[C@H](NC(=O)OCc1ccccc1)c1ccccc1,1,"falling, full curve"
c1cncc(Nc2nc(-c3cccs3)cs2)c1,10,"falling, partial curve, poor fit"
O=C(Cc1c(O)c2ccccc2[nH]c1=O)NC1CCCCCCC1,1,"falling, partial curve"
CCCc1cc(C(=O)Nc2sc3c(c2C#N)CCC3)no1,10,"falling, partial curve"
CCOC(=O)N1CCc2c(sc(NC(=O)c3ccc(Cl)s3)c2C(N)=O)C1,3.981,"falling, full curve"
Cc1nc(NCCN2CCOCC2)c2oc3ccccc3c2n1,1,"falling, partial curve"
Cc1c(-c2nc(N)nc(Nc3ccccc3)n2)oc2ccccc12,31.62,"falling, single point"
CCOC(=O)N1CCN(C(=O)c2ccc(C)c(S(=O)(=O)Nc3ccccc3)c2)CC1,15.85,"rising, single point"
COc1ccc(N2CCN(C(=O)C3CCC(Cn4c(=S)[nH]c5ccccc5c4=O)CC3)CC2)cc1 (stereo not shown),1.585,"rising, partial curve"
CCOC(=O)Cn1c2c(c(=N)c3c1CCC3)CCC2,31.62,"falling, single point"
CCOc1ccc(NC2c3ccccc3C(=O)N2c2ccc(Cl)cn2)cc1 (stereo not shown),15.85,"falling, partial curve, poor fit"
O=C(Nc1c(C(=O)N2CCOCC2)cnn1-c1ccccc1Cl)c1ccco1,12.59,"rising, partial curve"
COc1ccc(-c2nnc(SCc3nnc(-c4ccccc4)o3)n2-c2ccccc2)cc1,3.162,"rising, partial curve"
COc1ccc(-c2n[nH]c(C)c2-c2cnn(-c3ccccc3)c2)c(O)c1,6.31,"falling, partial curve"
COc1cc(-c2nnc(COc3ccc4cc(Br)ccc4c3)o2)cc(OC)c1OC,6.31,"falling, partial curve"
COc1cccc(C(=O)Nc2cccc(SC)c2)c1,10,"falling, partial curve"
c1ccc2sc(SCN(C3CCCCC3)C3CCCCC3)nc2c1,0.3981,"falling, full curve"
CSc1nc(-c2ccco2)nn1C(=O)c1ccc(C)cc1,31.62,"falling, single point"
COc1cccc(-c2nc(NCc3ccc(OC)cc3OC)c3ccccc3n2)c1,12.59,"falling, single point"
COc1cc(C2C3CN(C)CC=C3C(C#N)=C(N)C2(C#N)C#N)ccc1OC(C)C (stereo not shown),12.59,"rising, partial curve"
Cc1oc(C(C)(C)C)cc1C(=O)Nc1ccc2c(c1)OCCO2,5.012,"rising, single point"
Cn1nnc(C(O)CNCc2cccs2)n1 (stereo not shown),25.12,"rising, single point"
c1ccncc1,1.259,"falling, single point"
CC[N+](CC)(CCNC(=O)C(=O)NCC[N+](CC)(CC)Cc1ccccc1Cl)Cc1ccccc1Cl,31.62,"rising, single point"
CN1CCN(CCCNC(=O)c2cc3c(-c4ccc(Cl)cc4)nn(C)c3s2)CC1,12.59,"falling, partial curve"
Nc1nonc1-c1nc2ccccc2n1Cc1ccccc1,0.631,"falling, full curve, poor fit"
COc1cc(OC)cc(-c2cc(NC(C)=O)n[nH]2)c1,31.62,"rising, single point"
c1ccc(Cc2nnc3sc(-c4ccccn4)nn23)cc1,1.585,"falling, partial curve"
CC(C)Sc1nnc([C@@H]2CCCN2C(=O)OC(C)(C)C)o1,5.012,"rising, single point"

Repeated from the top, 2 entries:

| Compound | AC50 (µM) | curve |
|---|---|---|
| `CC(=O)OCCC(C)C` | 12.59 | rising, single point |
| `CC(=O)c1c(C)[nH]c(C(=O)OCCCCN2C(=O)c3ccccc3C2=O)c1C` | 15.85 | falling, single point |

Source: PubChem BioAssay AID912 (NCATS, 2007).